Data on 1 substance can be found in paper PMC13068435.

Amino acid sequences for entries named in this document (tags omitted). Residues count along the entry.
UniProt Q9ULT6, residues 56-936: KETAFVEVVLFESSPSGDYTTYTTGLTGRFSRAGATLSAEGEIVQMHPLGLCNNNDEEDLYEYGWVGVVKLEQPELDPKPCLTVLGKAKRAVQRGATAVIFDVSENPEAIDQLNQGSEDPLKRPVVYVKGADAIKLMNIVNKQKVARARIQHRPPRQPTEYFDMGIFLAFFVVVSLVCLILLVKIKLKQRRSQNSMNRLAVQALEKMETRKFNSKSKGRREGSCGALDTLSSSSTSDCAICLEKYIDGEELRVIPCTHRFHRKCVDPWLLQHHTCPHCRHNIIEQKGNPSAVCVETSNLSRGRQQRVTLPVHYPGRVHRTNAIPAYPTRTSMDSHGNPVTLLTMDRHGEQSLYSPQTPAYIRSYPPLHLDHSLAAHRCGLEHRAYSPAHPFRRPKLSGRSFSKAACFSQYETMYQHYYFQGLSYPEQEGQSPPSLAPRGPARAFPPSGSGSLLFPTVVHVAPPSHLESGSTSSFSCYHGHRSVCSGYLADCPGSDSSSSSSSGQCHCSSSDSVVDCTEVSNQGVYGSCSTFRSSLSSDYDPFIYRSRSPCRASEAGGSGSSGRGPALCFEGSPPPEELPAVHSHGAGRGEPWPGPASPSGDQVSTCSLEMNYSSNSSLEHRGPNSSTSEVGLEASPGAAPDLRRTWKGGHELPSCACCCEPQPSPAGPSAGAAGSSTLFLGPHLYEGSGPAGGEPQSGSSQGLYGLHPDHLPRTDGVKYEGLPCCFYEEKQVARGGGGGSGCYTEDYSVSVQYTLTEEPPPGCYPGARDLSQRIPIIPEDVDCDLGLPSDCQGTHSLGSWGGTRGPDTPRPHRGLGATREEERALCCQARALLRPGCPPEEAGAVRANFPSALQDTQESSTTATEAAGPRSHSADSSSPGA

This experiment deals with Endogenous EGFR of BGC823 cells (human (endogenous in BGC823)) (UniProt P00533). Put plainly: affinity purification with mass spectrometry; BGC823 cells starved overnight, 50 ng/ml EGF for 0 or 120 min; 1 mg lysate with 5 µg EGFR (Ab-13) antibody, protein A-Sepharose, washed with NETN buffer; LC-MS/MS.

No constants are given. Whether binding was seen depends on the method and setting. In cells and extracts the contact can be indirect. A yes stands for co-enrichment or nearness to the bait. Other partners may have been found.

Consider “Endogenous ZNRF3 of BGC823 cells (from UniProt Q9ULT6 56-936) (enzyme)”, for which the binding entry is “binds”.
